# According to PubChem BioAssay AID504594 (Broad Institute, 2011):
# Values joined by “and” are separate entries in the source; they are usually repeats but may differ in a detail not shown here. Equal values may be shown once. The whole screen tested about 2,000 compounds, of which fewer than 10 were called active.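 Rule for the calls: active = growth inhibition of at least 75% in every replicate, which also brings the mean inhibition to 75% or more; inconclusive = mean inhibition 75% or more but some replicate under 75%; inactive = the rest.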 This is one part of the list.
# Assay: growth inhibition of PfHsp90-dependent yeast, primary screen, antimalarial PfHsp90 inhibitor project, S. cerevisiae, BacTiter-Glo luminescence (AID 504594);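 note: 0% = DMSO neutral control wells and 100% = 20 µM radicicol control wells; higher value means stronger growth inhibition because the sign is flipped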
# Conditions: S. cerevisiae expressing PfHsp90, BacTiter-Glo growth, 48 h; at 9.4 µM; stronger effect = higher value
row,Compound,growth inhibition
1,Cc1ncc([N+](=O)[O-])n1CCO,inactive: -7.01%
2,O=C(COc1ccc(F)cc1)OCCN1CCOCC1,inactive: 12.9%
3,CCN(CC)CC#CCOC(=O)C(O)(c1ccccc1)C1CCCCC1 (centres undefined),inactive: 3.43%
4,CCN1CCN(C(=S)c2ccc(OC)cc2)CC1,inactive: -1.26%
5,O=C1Cc2ccccc2C(c2ccccc2)N1 (centres undefined),inactive: 5.96%
6,O=C(/C=C/c1ccccc1)c1ccccc1,inactive: -23.7%
7,Cn1cc(CN2CCN(CCO)CC2)c(-c2ccc(Oc3ccccc3)cc2)n1,inactive: 5.85%
8,Cc1nc(NC(CC(C)C)C(=O)O)c2nc(C)oc2n1 (centres undefined),inactive: 3.07%
9,COc1cc2nc(N3CCN(C(=O)c4ccco4)CC3)nc(N)c2cc1OC,inactive: -11.3%
10,CC(=O)Oc1ccc(C2OC(=O)c3ccccc3N2C(C)=O)cc1 (centres undefined),inactive: -6.47%
11,COc1ccc(OC)c(-n2c(Cn3c(-c4ccccn4)nc4ccccc43)n[nH]c2=S)c1,inactive: -11.3%
12,CC(C)(C)OC(=O)NCCC(=O)Oc1ccc2ccc(=O)oc2c1,inactive: 7%
13,CCc1cc2c(=O)c(-c3nc4ccccc4n3C)coc2c(CN2CCN(C)CC2)c1O,inactive: 0.821%
14,CC(=O)N1CC23C=CC(CC2CC12CCCCCC2)O3 (centres undefined),inactive: -6.53%
15,O=C(O)C1[C@H]2C(=O)N(C3CCCC3)C[C@]23C=C[C@H]1O3 (some centres undefined),inactive: -15.6%
16,O=c1c2ccccc2nnn1Cc1cccc2ccccc12,inactive: -17.5%
17,C#CCN(C)Cc1ccccc1,inactive: -0.947%
18,O=C(O)c1ccccc1OCCOc1ccccc1,inactive: 3.6%
19,CCn1cc(C(=O)O)c(=O)c2ccc(C)nc21,inactive: -1.72%
20,COc1ccc2cc(CCC(C)=O)ccc2c1,inactive: -10.2%
21,CC(=O)N(CCC(Cc1ccccc1)c1ccc2c(c1)OCO2)Cc1ccc(Cl)cc1 (centres undefined),inactive: -1.84%
22,CN/C(=C/[N+](=O)[O-])NCCSCc1ccc(CN(C)C)o1,inactive: 11.7%
23,O=C(CCCN1CC=C(n2c(=O)[nH]c3ccccc32)CC1)c1ccc(F)cc1,inactive: -3.01%
24,COc1cc2oc(-c3ccc(O)cc3)cc(=O)c2c(OC)c1O,inactive: 9.38%

row,Compound,growth inhibition
1,COc1ccc2oc(=O)c(C(=O)Nc3ccccc3-c3ccccc3)cc2c1,inactive: -9.43%
2,CCN(CC)CCNC(=O)c1cc(S(C)(=O)=O)ccc1OC,inactive: 4.59%
3,C=CCn1c(SCC(=O)NC2CCCCC2)nc2ccccc2c1=O,inactive: -4.58%
4,CC(=O)Nc1ccc2[nH]c(C)c(CC=C(Cl)Cl)c(=O)c2c1,inactive: 12.6%
5,O=C(O)c1ccccc1C(=O)OCCCCOC(=O)c1ccccc1C(=O)O,inactive: -3.9%
6,CC(=O)OCC#CCSc1nc2ccccc2n1C,inactive: -21.1%
7,CCCC(=O)O[C@]1(C(=O)COC(C)=O)CC[C@H]2[C@@H]3C[C@H](F)C4=CC(=O)C=C[C@]4(C)[C@@]3(F)[C@@H](O)C[C@@]21C,inactive: 6.83%
8,Cn1nnnc1SCC1=C(C(=O)O)N2C(=O)[C@@H](NC(=O)[C@H](O)c3ccccc3)[C@H]2SC1,inactive: -10.3%
9,O=C(NNC(=O)c1cccs1)c1ccco1,inactive: 5.33%
10,OCCN1CCN(CCCN2c3ccccc3Sc3ccc(Cl)cc32)CC1,inactive: 6.93%
11,COC(=O)C1=C(C)N(C)C(=S)NC1c1ccc(Cl)cc1 (centres undefined),inactive: -13.4%
12,CCn1c(O)c(/C=C2\C=Nc3ccccc32)sc1=O,inactive: 3.64%
13,Nc1ccc(S(=O)(=O)c2ccc(N)cc2)cc1,inactive: 0.466%
14,O=C(c1cccnc1)N1N=C(C2CC2)CC1(O)C(F)(F)F (centres undefined),inactive: -6.11%
15,COC(=O)c1ccc(C(=O)OC)c(NC(=O)C(C)C)c1,inactive: 3.81%
16,COCc1cc(=O)[nH]c(Nc2nc3ccccc3o2)n1,inactive: -0.942%
17,CC1CCCc2sc3ncn(N)c(=N)c3c21 (centres undefined),inactive: 6.48%
18,O=c1oc2c(CN3CCCCC3)c(O)ccc2c2c1CCCCC2,inactive: 6.09%
19,CC(=O)[C@@H]1[C@@H](C(=O)c2ccc(C)cc2)[C@]2(C(=O)Nc3ccccc32)[C@H]2C=Cc3cc(F)ccc3N12,inactive: 12.2%
20,COc1ccc2c(c1O)Cc1ccccc1C2=O,inactive: -1.56%
21,CC(C)Cc1cc(C(=O)N2CCC(N3CCC(C(=O)N4CCCC4)CC3)CC2)n[nH]1,inactive: 8.38%
22,Nc1nc(SCc2ccc([N+](=O)[O-])cc2)c2ncn(C3OC(CO)C(O)C3O)c2n1 (centres undefined),inactive: -10.3%
23,CCOc1ccc2nc(NC(=O)NC3CCCCC3)sc2c1,inactive: 16.2%
24,O=C(N1CCCCC1)C1(c2ccccc2)CCOCC1,inactive: 2.93%

# Reformatted: entries from further up
row	Compound	growth inhibition
4	CCN1CCN(C(=S)c2ccc(OC)cc2)CC1	inactive: -1.26%
11	COc1ccc(OC)c(-n2c(Cn3c(-c4ccccn4)nc4ccccc43)n[nH]c2=S)c1	inactive: -11.3%
24	COc1cc2oc(-c3ccc(O)cc3)cc(=O)c2c(OC)c1O	inactive: 9.38%
4	CC(=O)Nc1ccc2[nH]c(C)c(CC=C(Cl)Cl)c(=O)c2c1	inactive: 12.6%

# (further entries)

row,Compound,growth inhibition
1,Cc1ccc(CN2CCN(Cc3cn[nH]c3C3CCCCC3)CC2CCO)cc1 (centres undefined),inactive: -25.7%
2,CCCC(=O)Nc1ncnc2c1ncn2[C@@H]1O[C@@H]2COP(=O)(O)O[C@H]2[C@H]1OC(=O)CCC,inactive: -16.2%
3,CCc1cccc(OC2OC(CO)C(O)C(O)C2NC(C)=O)c1 (centres undefined),inactive: -0.333%
4,CCCc1c(OCCCCc2nn[nH]n2)ccc(C(C)=O)c1O,inactive: 6.27%
5,C=CCc1cccc2cc(C(=O)Nc3ccc(CC(=O)O)cc3)c(=O)oc12,inactive: -7.68%
6,COc1cc(CNc2nnnn2C)ccc1OCc1ccc(F)cc1Cl,inactive: 10.4%
7,CCc1cc2c(C)cc(=O)oc2cc1OC(=O)C1CCCN1C(=O)OC(C)(C)C (centres undefined),inactive: 5.63%
8,O=C(COc1ccc2c(-c3ccccc3)cc(=O)oc2c1)NCc1cccs1,inactive: 6.98%
9,O=c1cc(-c2ccccc2)oc2cc(OCc3ccccc3)cc(O)c12,inactive: 2.87%
10,C/C(=N\N=C1\NC(=O)C(CC(=O)Nc2ccc(Cl)cc2)S1)c1ccco1 (centres undefined),inactive: 28%
11,CC(C)OC(=O)CC12CN3CN(C1)CC(CC(=O)OC(C)C)(C3)C2=O,inactive: 0.344%
12,CC1(C)CC(C(CC(=O)O)c2ccccc2)CCO1 (centres undefined),inactive: -0.107%
13,Cc1ccc(P(=O)(CSC(=N)N)c2ccc(C)cc2)cc1,inactive: -1.66%
14,O=C(c1cc2cc(Br)ccc2o1)N1CCCC1,inactive: -17.3%
15,CC(=O)[C@H]1CC[C@H]2[C@@H]3CCC4=CC(=O)CC[C@]4(C)[C@H]3[C@H](O)C[C@]12C,inactive: 3.27%
16,Cn1cc(/C=C/C(=O)c2ccccc2)c2ccccc21,inactive: -12.4%
17,COc1ccc(-c2c3c(=O)n(C)c(=O)n(C)c3cn2C2CCCCC2)cc1,inactive: 0.551%
18,COc1cccc2cc(-c3ccccc3)c(=O)oc12,inactive: -6.93%
19,COc1cc2nc(N3CCN(C(=O)C4CCCO4)CC3)nc(N)c2cc1OC (centres undefined),inactive: 3.89% and inactive: -4.06%
20,C[C@H]1C[C@H]2[C@@H]3CCC4=CC(=O)C=C[C@]4(C)[C@@]3(Cl)[C@@H](O)C[C@]2(C)[C@@]1(O)C(=O)CO,inactive: 12%
21,NC(N)=N/N=C/c1c(Cl)cccc1Cl,inactive: 2.34%
22,NS(=O)(=O)c1cc2c(cc1Cl)NCNS2(=O)=O,inactive: 9.9%
23,CC(C)Cn1c(=S)[nH]c2cc(C(=O)O)ccc2c1=O,inactive: 11.9%
24,O=c1[nH]c(=O)n([C@H]2C[C@H](O)[C@@H](CO)O2)cc1F,inactive: 4.05%

row,Compound,growth inhibition
1,O=C(N1CCCC1)C12CC3CC(C1)CC(C(=O)N1CCCC1)(C3)C2,inactive: -11.5%
2,COC1=CC(=O)CC(C)C12Oc1c(Cl)c(OC)cc(OC)c1C2=O (centres undefined),inactive: -0.902%
3,CS(=O)(=O)Nc1cccc(C(=O)CC2(O)C(=O)Nc3ccc(Br)cc32)c1 (centres undefined),inactive: -27.8%
4,O=C(/C=C/c1c[nH]c2ccccc12)c1cccc2ccccc12,inactive: 5.41%
5,CC(=O)Oc1cc(C(C)C)c(OCCN(C)C)cc1C,inactive: 2.3%
6,CCc1cc(=O)oc2cc(OCc3nn[nH]n3)ccc12,inactive: -13.7%
7,CSc1ccc(/C=N/N2CCN(Cc3ccc(C)cc3C)CC2)cc1,inactive: 0.745%
8,C[C@H](NC(=O)Nc1ccccc1F)C(=O)O,inactive: -6.88%
9,COc1ccc2cc[nH]c2c1,inactive: -4.91%
10,C[N+]12CCC(CC1)C(OC(=O)C(O)(c1ccccc1)c1ccccc1)C2 (centres undefined),inactive: 4.17%
11,CC(=O)N1CCn2c3c(c4cc(C)ccc42)CCCC31 (centres undefined),inactive: -11.1%
12,COc1ccc2c(c1OC)C(C1c3c(cc4c(c3OC)OCO4)CCN1C)OC2=O (centres undefined),inactive: 1.28%
13,COC(=O)c1[nH]c2ccc(F)cc2c1NC(=O)C1=COCCO1,inactive: -3.7%
14,O=C(NCCO)c1ccc2[nH]c3ccccc3c2c1,inactive: -6.45%
15,COc1ccc(CN2CCCC(C(=O)c3ccc(Cl)cc3)C2)cc1Cn1cccn1 (centres undefined),inactive: 0.31%
16,CCOc1ccc(CC2c3cc(OCC)c(OCC)cc3CCN2C(=O)CN2CCN(C)CC2)cc1OCC (centres undefined),inactive: 0.543%
17,COc1cc(C)nc(-n2nc(C)cc2OC)n1,inactive: 8.93%
18,CS(=O)(=O)Nc1ccc([N+](=O)[O-])cc1Oc1ccccc1,inactive: -3.05%
19,CC(=O)[C@@]1(O)CC[C@H]2[C@@H]3CCC4=CC(=O)CC[C@]4(C)[C@H]3[C@@H](O)C[C@@]21C,inactive: -3.14%
20,Cc1coc2cc3oc(=O)c(CCC(=O)O)c(C)c3cc12,inactive: 1.18%
21,CNCCC=C1c2ccccc2CCc2ccccc21,inactive: -5.7%
22,CC[C@]1(O)CC2CN(CCc3c([nH]c4ccccc34)[C@@](C(=O)OC)(c3cc4c(cc3OC)N(C=O)[C@H]3[C@@](O)(C(=O)OC)[C@H](OC(C)=O)[C@]5(CC)C=CCN6CC[C@]43[C@@H]65)C2)C1 (some centres undefined),inactive: -4.95%

# In another format: results already given
row	Compound	growth inhibition
6	CCc1cc(=O)oc2cc(OCc3nn[nH]n3)ccc12	inactive: -13.7%
8	C[C@H](NC(=O)Nc1ccccc1F)C(=O)O	inactive: -6.88%
20	Cc1coc2cc3oc(=O)c(CCC(=O)O)c(C)c3cc12	inactive: 1.18%
22	CC[C@]1(O)CC2CN(CCc3c([nH]c4ccccc34)[C@@](C(=O)OC)(c3cc4c(cc3OC)N(C=O)[C@H]3[C@@](O)(C(=O)OC)[C@H](OC(C)=O)[C@]5(CC)C=CCN6CC[C@]43[C@@H]65)C2)C1 (some centres undefined)	inactive: -4.95%
